We go through 19 compounds from PubChem BioAssay AID328 (DTP/NCI, 2004).

Structures are written as SMILES. The list shows only some results of the screen, not a fair sample: it is rich in T/C values a quarter to a half above the control, in often repeated tests (any T/C) and in doses without a T/C. Further doses and runs are listed elsewhere. T/C: endpoint of the treated group in % of that of the vehicle group. Some entries give survivors of the animals treated and no T/C: the source holds a T/C of zero for them, seemingly a mark for toxic or unscored doses. Some survivor counts are full or nearly so, which does not show that the dose was tolerated: survival well below the control is almost never listed, so the zero probably covers shortened survival too. Survivors were counted at the toxicity check, usually on the fifth day, unless a day is given; later deaths do not show. Schedules are NCI's codes, read here as Q, the interval in days (D) or hours (H), X, the number of doses. For survival time, the PubChem record calls one and a half times the control and up active, and a quarter to a half above the control has no call in these data; cut-offs in other NCI protocols can differ. Some T/C values are followed by the survivors on the day toxicity was checked, most often the fifth; where none is given, no animal had died by that day.

The assay relates to BDF1 mice, P388 leukemia ip, median survival T/C. Nature of the assay: NCI In Vivo Anticancer Drug Screen. Data for tumor model P388 Leukemia (intraperitoneal) in B6D2F1 (BDF1) mice. Particulars: T/C endpoint: median survival time, higher T/C = longer survival. The protocol: The antitumor activity of compounds was measured in mice bearing transplantable tumors. Survival or tumor size were measured and the results are expressed as the measurement made in the treated group (T) divided by the measurement made in the vehicle treated control group (C). The tumor model used in this assay is P388 Leukemia (intraperitoneal) in B6D2F1 (BDF1) mice

Where [1] appears, read: dose: 200.0 mg/kg/injection, schedule: Q01DX001 (ip), vehicle: Klucel (hydroxypropylcellulose) (HPC).
The mark [2] stands for this setting: dose: 64.0 mg/kg/injection, schedule: Q01DX010 (ip), vehicle: carboxymethylcellulose (CMC).

`OC1c2ccccc2-c2ccccc2C1O` (configuration not stated): the T/C (dose: 100.0 mg/kg/injection, schedule: Q04DX002 (ip), vehicle: saline with Tween-80) was 140 % of control.

Regarding `CN(C)c1ccc(C(=O)NN)cc1`, the survivor count (dose: 400.0 mg/kg/injection, schedule: Q04DX003 (ip), vehicle: saline with Tween-80) was 4 of 6.

For `CCCCCC(C[N+](C)(C)C)C(=O)/C=C/c1ccc(Cl)cc1` (configuration not stated), the survivor count runs as follows: (dose: 25.0 mg/kg/injection, schedule: Q01DX001 (ip), vehicle: Klucel (hydroxypropylcellulose) (HPC)) 5 of 6; (dose: 100.0 mg/kg/injection, schedule: Q01DX001 (ip), vehicle: Klucel (hydroxypropylcellulose) (HPC)) 3 of 6; under setting [1], 1 of 6.

Regarding `[Cl][Hg][c]1ccc2ccccc2c1`, the survivor count (dose: 25.0 mg/kg/injection, schedule: Q01DX009 (ip), vehicle: gum acacia) is listed as 1 of 6 and the survivor count (dose: 50.0 mg/kg/injection, schedule: Q01DX009 (ip), vehicle: gum acacia) was 0 of 6.

For the compound `COc1ccc2nc(Cl)c(C)c(C)c2c1`, the survivor count was 5 of 6 (dose: 100.0 mg/kg/injection, schedule: Q01DX009 (ip), vehicle: saline) and 6 of 6 (dose: 200.0 mg/kg/injection, schedule: Q01DX009 (ip), vehicle: saline).

On to `Nc1[nH]c(=S)[nH]c(=O)c1N`, for which the survivor count (dose: 150.0 mg/kg/injection, schedule: Q01DX009 (ip), vehicle: Klucel (hydroxypropylcellulose) (HPC)) is 3 of 6; the survivor count (dose: 300.0 mg/kg/injection, schedule: Q01DX009 (ip), vehicle: Klucel (hydroxypropylcellulose) (HPC)) is listed as 2 of 6; the survivor count (dose: 400.0 mg/kg/injection, schedule: Q01DX001 (ip), vehicle: Klucel (hydroxypropylcellulose) (HPC)) was 2 of 6.

For `CCCCCCCCCCNCCS`, the T/C under setting [2] is 140 % of control. For the same compound, the survivor count is reported as 0 of 6 under setting [2]; 0 of 6 (dose: 128.0 mg/kg/injection, schedule: Q01DX010 (ip), vehicle: carboxymethylcellulose (CMC)); 0 of 6 (dose: 256.0 mg/kg/injection, schedule: Q01DX010 (ip), vehicle: carboxymethylcellulose (CMC)).

Regarding `C[C@]12C=CC(=O)C=C1[C@@H](F)C[C@@H]1[C@@H]2[C@@H](O)C[C@@]2(C)[C@H]1CC[C@]2(O)C(=O)CO`, the survivor count is, setting by setting: (dose: 200.0 mg/kg/injection, schedule: Q01DX009 (ip), vehicle: Klucel (hydroxypropylcellulose) (HPC)) 4 of 6; (dose: 400.0 mg/kg/injection, schedule: Q01DX009 (ip), vehicle: Klucel (hydroxypropylcellulose) (HPC)) 6 of 6.

Turning to `c1ccc(C2=C(c3ccccc3)c3cccc4cccc2c34)cc1`, the survivor count under setting [1] was 6 of 6.

For `COc1ccc(C[C@H](N)C(=O)NC2C(CO)OC(n3cnc4c(N(C)C)ncnc43)C2O)cc1` (some centres not stated), the T/C is 140 % of control (dose: 66.0 mg/kg/injection, schedule: Q01DX009 (ip), vehicle: saline) and 129 % of control (dose: 200.0 mg/kg/injection, schedule: Q04DX003 (ip), vehicle: saline). Further, the survivor count is listed as 6 of 6 (dose: 150.0 mg/kg/injection, schedule: Q01DX009 (ip), vehicle: saline) and 4 of 8 (dose: 400.0 mg/kg/injection, schedule: Q04DX003 (ip), vehicle: saline).

Regarding `N=C(N)c1ccc(NC(=S)Nc2ccc(C(=N)N)cc2)cc1`, the survivor count reads like this: (dose: 50.0 mg/kg/injection, schedule: Q01DX009 (ip), vehicle: saline with Tween-80) 2 of 6; (dose: 100.0 mg/kg/injection, schedule: Q01DX009 (ip), vehicle: saline with Tween-80) 0 of 6; (dose: 200.0 mg/kg/injection, schedule: Q01DX009 (ip), vehicle: saline with Tween-80) 0 of 6.

`CC(=O)Oc1cc(-c2ccccc2)c(OC(C)=O)cc1-c1ccccc1`: the survivor count (dose: 200.0 mg/kg/injection, schedule: Q01DX009 (ip), vehicle: water) is on record as 2 of 6.

Regarding `O=C(Oc1ccccc1[N+](=O)[O-])c1ccccc1`, the survivor count is 6 of 6 (dose: 100.0 mg/kg/injection, schedule: Q04DX003 (ip), vehicle: other) and 6 of 6 (dose: 200.0 mg/kg/injection, schedule: Q04DX003 (ip), vehicle: other).

In the case of `O=C1CCCc2ccccc2N1`, the survivor count (dose: 100.0 mg/kg/injection, schedule: Q01DX009 (ip), vehicle: Klucel (hydroxypropylcellulose) (HPC)) is reported as 6 of 6.

With `Nc1ccccc1SC1CC(=O)N(c2ccc(Br)c(Cl)c2)C1=O` (configuration not stated), the survivor count (dose: 0.75 mg/kg/injection, schedule: Q01DX005 (ip), vehicle: saline with Tween-80) was 5 of 5.

For `CCCOC(=O)C1(N)CCCC1`, the survivor count (dose: 400.0 mg/kg/injection, schedule: Q01DX009 (ip), vehicle: saline with Tween-80) was 6 of 6.

Consider `CC[C@](C)(O)C(=O)O[C@H]1C(=O)O[C@@H]2C[C@H]3C(C)=C[C@H](O)[C@@H](O)[C@]3(C)[C@H]3[C@@]4(O)OC[C@]32[C@@H]1[C@@H](C)[C@H]4O`, for which the T/C (dose: 2.0 mg/kg/injection, schedule: Q01DX010 (ip), vehicle: other) is 127 % of control. For the same compound, the survivor count runs as follows: (dose: 8.0 mg/kg/injection, schedule: Q01DX010 (ip), vehicle: other) 1 of 4; (dose: 10.0 mg/kg/injection, schedule: Q01DX010 (ip), vehicle: carboxymethylcellulose (CMC)) 0 of 6; (dose: 20.0 mg/kg/injection, schedule: Q01DX010 (ip), vehicle: carboxymethylcellulose (CMC)) 0 of 6.

Take `Clc1nn2nnnc2c2ccccc12`: the survivor count (dose: 18.75 mg/kg/injection, schedule: Q01DX009 (ip), vehicle: saline with Tween-80) is recorded as 7 of 7 and the survivor count (dose: 75.0 mg/kg/injection, schedule: Q01DX009 (ip), vehicle: saline with Tween-80) was 3 of 7. Besides, under “dose: 40.0 mg/kg/injection, schedule: Q01DX009 (ip), vehicle: saline with Tween-80”, the T/C was 127 % of control [5 of 7 alive].

As for `CNC[C@@H](O)c1ccc(O)c(O)c1`, the survivor count (dose: 1.0 mg/kg/injection, schedule: Q01DX009 (ip), vehicle: saline) is reported as 6 of 6; the survivor count (dose: 4.0 mg/kg/injection, schedule: Q01DX001 (ip), vehicle: saline) is 2 of 6; the survivor count (dose: 4.0 mg/kg/injection, schedule: Q04DX003 (ip), vehicle: saline) is given as 6 of 6; the survivor count (dose: 8.0 mg/kg/injection, schedule: Q01DX001 (ip), vehicle: saline) was 3 of 6; the survivor count (dose: 8.0 mg/kg/injection, schedule: Q04DX003 (ip), vehicle: saline) is given as 0 of 6; the survivor count (dose: 13.0 mg/kg/injection, schedule: Q01DX009 (ip), vehicle: saline) is given as 1 of 6. Moreover, the survivor count (dose: 16.0 mg/kg/injection, schedule: Q04DX003 (ip), vehicle: saline) is on record as 6 of 6. The T/C (dose: 5.9 mg/kg/injection, schedule: Q01DX009 (ip), vehicle: saline) was 130 % of control [5 of 6 alive].
